Results as given in paper PMC7969625.
No constants are given. Whether binding was seen depends on the method and setting. Some results given as binding are weak or reduced against the parent protein; the word gives no strength. Sequences can lack the tags named with a protein.

Protein sequences, listed by entry. Tags and fused reporters are not part of them.
UniProt P19338: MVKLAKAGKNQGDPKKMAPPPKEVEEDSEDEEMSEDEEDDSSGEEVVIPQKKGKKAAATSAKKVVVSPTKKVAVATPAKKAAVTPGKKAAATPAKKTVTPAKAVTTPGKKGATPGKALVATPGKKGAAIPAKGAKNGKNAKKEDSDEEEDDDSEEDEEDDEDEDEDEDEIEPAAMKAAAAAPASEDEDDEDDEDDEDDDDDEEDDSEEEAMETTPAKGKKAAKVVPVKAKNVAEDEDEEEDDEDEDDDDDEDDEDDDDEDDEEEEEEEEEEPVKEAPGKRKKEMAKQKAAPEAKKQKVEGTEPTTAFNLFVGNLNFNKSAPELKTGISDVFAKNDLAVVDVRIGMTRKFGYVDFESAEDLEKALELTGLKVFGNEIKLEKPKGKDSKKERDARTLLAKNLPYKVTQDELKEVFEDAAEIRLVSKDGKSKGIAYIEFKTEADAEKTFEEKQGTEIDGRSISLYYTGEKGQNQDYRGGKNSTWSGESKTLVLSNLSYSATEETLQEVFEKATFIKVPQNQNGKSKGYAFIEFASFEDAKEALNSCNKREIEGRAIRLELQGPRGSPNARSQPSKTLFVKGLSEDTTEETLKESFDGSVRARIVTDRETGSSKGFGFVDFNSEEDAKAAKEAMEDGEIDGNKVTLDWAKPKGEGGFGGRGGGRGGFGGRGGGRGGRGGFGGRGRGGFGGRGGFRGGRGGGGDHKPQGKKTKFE

Target: FLAG-tagged nucleolin (UniProt P19338)
Test: pull-down; FLAG-tagged nucleolin expressed in HeLa cells, precipitated from cell extracts by FLAG antibody and incubated with isolated GST or GST fusion proteins; FLAG and GST specific immunoblot; both purified

B1: GST-C20orf204-189AA (protein, UniProt A0A1B0GTL2 24-189)
chain: YSPACSVPDVLRHYRAIIFEDLQAAVKWGGAGAEKTRPGSRHFHFIQKNLTRPGSSGRRGRPRASCGAQKEHSILLSISSLGRTLRGAVAGGRRGALERAAWTVAVRTEAVMRRHCRTLRQRSRRPKMRPARRRGGRRQLLLRALDAVATCWEKLFALRAPASRDS
B1 was tested. Which binding did it give?
The binding was “binds”.
